Measured values taken from article PMC9085827.

By UniProt entry, the sequences of proteins in these tests, tags left out. Residues count along the entry.
UniProt Q84TH9, 578-659: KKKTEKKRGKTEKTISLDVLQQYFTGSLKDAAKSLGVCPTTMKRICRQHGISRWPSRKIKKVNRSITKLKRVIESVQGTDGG

Molecular target: NLP7 RWP-RK DNA-binding domain (Arabidopsis thaliana) (UniProt Q84TH9)
Assay: EMSA
Conditions: 20 mM HEPES-KOH pH 7.6, 3 mM MgCl2, 2 mM DTT, 0.5 mM EDTA, 30 mM KCl, 30 mM NaCl, 10% glycerol, 0.5 ug poly[d(I-C)], room temperature; recombinant protein; protein details: His; label: biotin; probe letters rebuilt from the primers and the genome

Binding result, no binding:
GTCTAGACTGCAGCTGTGCGATTTTCAGTTGTCTGATGGAAAATTCAGAAGCCACCACTTACAAATCAAAAGTATAAAAAAAGACTCAAAAGAAGACTCCAAAATCCAAATAGTTTTTCTCTCCGCATGCTGACAAGCTTGC (double strand) [AO promoter P1], GTCTAGACTGCAGCTGTGCGACTTTTTCCATGATTCTTCTAGTCGGTCATGCTTGGTGCATGTATGAACACATATTTAAAGTTCTATACAAGTTGTTAGAATTCTTTTAAATTTAATTTGCTCCGCATGCTGACAAGCTTGC (double strand) [AO promoter P4], GCAAGCTTGTCAGCATGCGGAAAATAACAACGGTAGCTCAAGATGTGTGACCATGATTTTCCAAAACTAAAACTAAAAAAATAAATAAAGCAAATTAAATTTAAAAGAATTCTAACTCGCACAGCTGCAGTCTAGAC (double strand) [AO promoter P5], GCAAGCTTGTCAGCATGCGGAACTTTAAATATGTGTTCATACATGCACCAAGCATGACCGACTAGAAGAATCATGGAAAAAGAACATTCACTTTTCCATGACTCGTGGCCAATGCAAATCTTCGCACAGCTGCAGTCTAGAC (double strand) [AO promoter P3]

For at least one entry, the source does not settle the construct or the ends of the probe. Negatives hold for the conditions tested.
